Assay results from PubChem BioAssay AID1671190 (National Center for Advancing Translational Sciences (NCATS), 2021).
The whole screen tested about 580,000 compounds, of which about 6,100 (1.1%) were called active. This list was built around the results that the source calls inconclusive (neither active nor inactive); the mix of calls is not that of the screen. Calls follow the shape of the dose curve; as a rule, active = well fitted inhibition curve with a large enough effect; inconclusive = small, poorly fitted or top-dose-only effect, or another doubt; inactive = no such curve, though single readings can be large or run the other way. A potency beside an inconclusive call is a rough fit, not a confirmed value.

Amino acid sequences for entries named in this document (tags omitted).
UniProt P18054, whole entry, looked up: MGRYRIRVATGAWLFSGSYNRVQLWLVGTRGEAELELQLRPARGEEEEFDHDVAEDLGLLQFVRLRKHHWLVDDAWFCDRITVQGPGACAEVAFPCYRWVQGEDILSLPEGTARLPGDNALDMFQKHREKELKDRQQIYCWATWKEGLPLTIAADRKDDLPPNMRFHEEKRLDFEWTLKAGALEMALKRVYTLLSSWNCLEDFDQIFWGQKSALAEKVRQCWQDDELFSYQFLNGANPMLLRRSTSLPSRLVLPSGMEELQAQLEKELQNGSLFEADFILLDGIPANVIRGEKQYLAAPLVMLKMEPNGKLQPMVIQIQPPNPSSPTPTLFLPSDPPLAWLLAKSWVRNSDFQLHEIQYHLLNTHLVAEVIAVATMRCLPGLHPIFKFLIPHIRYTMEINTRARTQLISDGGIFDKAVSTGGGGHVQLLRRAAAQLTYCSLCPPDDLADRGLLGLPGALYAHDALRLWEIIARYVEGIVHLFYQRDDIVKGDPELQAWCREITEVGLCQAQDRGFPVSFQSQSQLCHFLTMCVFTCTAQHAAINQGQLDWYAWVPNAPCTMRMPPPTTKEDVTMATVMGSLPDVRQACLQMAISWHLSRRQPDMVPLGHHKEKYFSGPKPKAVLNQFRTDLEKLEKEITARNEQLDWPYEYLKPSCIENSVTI

Target: Polyunsaturated fatty acid lipoxygenase ALOX12 (Homo sapiens) (UniProt P18054)
Experiment: Primary qHTS assay for inhibitors of human arachidonate 12S-lipoxygenase (ALOX12): Round 2
Details: purified 12hLO, xylenol orange hydroperoxide absorbance; series mostly up to 108 µM
Procedure, shortened: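 Purified human 12hLO (150 nM final) in 25 mM Hepes, 0.01% Triton X-100, pH 7.0 was preincubated 15 min at room temperature with compound. Then 40 uM arachidonic acid was added, 30 min. Hydroperoxide was read by Fe-XO absorbance ratio 573/405 nm.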
Potency is read from the fitted curve at half-maximal effect.

Question: CC1CCc2sc(NC(=S)NC(=O)c3ccccc3)c(C#N)c2C1 (centres undefined) was tested. Which Potency did it give?
Answer: The Potency was inconclusive: 39.8 µM [inhibitor, partial curve, poor fit].

Question: For NC(CO)(CO)COCc1ccccc1, which Potency is on record?
Answer: Its Potency is inconclusive: 100 µM [inhibitor, single point].

Question: How did the Potency turn out when CCOC(=O)c1ccc(NC2c3ncccc3C(=O)N2Cc2ccc(F)cc2)cc1 (centres undefined) was run?
Answer: Its Potency is inconclusive: 39.8 µM [inhibitor, partial curve, poor fit].

Question: For CCCCOc1ccc(-c2csc(-c3nc(-c4ccc(F)cc4)cs3)n2)cc1, which Potency is on record?
Answer: The Potency was “inactive”.

Question: For Cc1[nH]n(-c2ccccc2)c(=O)c1C(c1cc(Cl)ccc1O)c1c(C)[nH]n(-c2ccccc2)c1=O, which Potency is on record?
Answer: The Potency was inconclusive: 35.5 µM [inhibitor, single point].

Question: With Cc1ccc(SCc2cc(=O)[nH]c(Nc3nc(C)c4ccccc4n3)n2)cc1 as the compound, how does the Potency read?
Answer: Its Potency is inconclusive: 126 µM [inhibitor, single point].

Question: Which Potency does the source give for CCn1cc(CN2CCC(N3C(=O)C4(CCCC4)C3c3ccccc3)CC2)cn1 (centres undefined) here?
Answer: The Potency was “inactive”.

Question: For CCOc1ccccc1N(C(=O)c1snc(C(N)=O)c1N)C(C(=O)NCC1CCCO1)c1ccc2ncccc2c1 (centres undefined), which Potency is on record?
Answer: The Potency was inconclusive: 89.1 µM [inhibitor, partial curve, poor fit].

Question: COc1ccc(/C=N/n2cnc3c([nH]c4ccc(Br)cc43)c2=O)cc1CN1CCOCC1 was tested. Which Potency did it give?
Answer: The Potency was “inactive”.

Question: How did the Potency turn out when Cc1ccsc1/C=N/n1c(-c2ccccn2)n[nH]c1=S was run?
Answer: The Potency was inconclusive: 56.2 µM [inhibitor, partial curve, poor fit].

Question: With COCC(=O)NC[C@H]1O[C@@H](CO)[C@@H](O)[C@H]1N1CCN(c2ccc(F)cc2)CC1 as the compound, how does the Potency read?
Answer: The Potency was inconclusive: 22.4 µM [inhibitor, full curve].

Question: With CCOC(=O)N1CCN(C(=O)c2ccccc2CCc2ccccc2)CC1 as the compound, how does the Potency read?
Answer: Its Potency is “inactive”.

Question: With Cc1nc2ccccn2c1-c1csc(Nc2cccc(O)c2)n1 as the compound, how does the Potency read?
Answer: Its Potency is “inactive”.

Question: Which Potency does the source give for CSc1ccccc1C(=O)Nc1cc([N+](=O)[O-])ccc1C here?
Answer: The Potency was inconclusive: 50.1 µM [inhibitor, partial curve, poor fit].

Question: For COc1cc(C(=O)Nc2sc3ccccc3c(=O)c2-c2ccc3c(c2)OCO3)cc(OC)c1OC, which Potency is on record?
Answer: Its Potency is “inactive”.

Question: With COc1ccc(CC(=O)NO)cc1 as the compound, how does the Potency read?
Answer: Its Potency is inconclusive: 10 µM [inhibitor, full curve].

Question: Which Potency does the source give for CCc1cccc(NC(=O)N2CCCC(c3noc(COc4ccccc4)n3)C2)c1 (centres undefined) here?
Answer: Its Potency is “inactive”.

Question: For Oc1ccc(/C=N/Nc2ncc(Cl)cc2Cl)cc1, which Potency is on record?
Answer: Its Potency is inconclusive: 1.58 µM [inhibitor, partial curve, poor fit].

Question: How did the Potency turn out when COC(=O)c1c(-c2cccs2)csc1NC(=O)c1ccc(Br)cc1 was run?
Answer: The Potency was inconclusive: 50.1 µM [inhibitor, partial curve, poor fit].

Question: For Cc1occc1C(=O)Nc1ccc2c(c1)OCO2, which Potency is on record?
Answer: Its Potency is inconclusive: 56.2 µM [inhibitor, partial curve, poor fit].

Question: How did the Potency turn out when Cc1nc(Nc2ccncc2)c2oc3ccccc3c2n1 was run?
Answer: Its Potency is “inactive”.

Question: For CCOC(=O)C1(Cc2cccc(OC)c2)CCN(Cc2ccc(C)s2)CC1, which Potency is on record?
Answer: The Potency was “inactive”.

Question: How did the Potency turn out when CNC(=O)C1CN(C(=O)c2nn(Cc3ccccc3)c(=O)c3ccccc23)c2ccccc2O1 (centres undefined) was run?
Answer: Its Potency is inconclusive: 100 µM [inhibitor, single point].

Question: How did the Potency turn out when Cc1cc(SCC(=O)NC(=O)NC2CC2)nc2ccccc12 was run?
Answer: Its Potency is “inactive”.

Question: Which Potency does the source give for O=c1c(-c2ccc(Cl)cc2)coc2cc(OCCN3CCCCC3)ccc12 here?
Answer: Its Potency is inconclusive: 1.78 µM [inhibitor, full curve, poor fit].

Question: How did the Potency turn out when COc1cc(C2CC(=O)Oc3cc4c(cc32)OCO4)cc(OC)c1OC (centres undefined) was run?
Answer: Its Potency is inconclusive: 79.4 µM [inhibitor, partial curve, poor fit].

Question: With CN(Cc1ccco1)c1nc(-c2cccnc2)nc2ccccc12 as the compound, how does the Potency read?
Answer: Its Potency is “inactive”.

Question: For O=[N+]([O-])c1cccc(S(=O)(=O)Nc2nc3ccccc3nc2Nc2cccc(S(=O)(=O)N3CCCCC3)c2)c1, which Potency is on record?
Answer: The Potency was inconclusive: 35.5 µM [inhibitor, partial curve].

Question: For Cc1cccc(/C(N)=N/OC(=O)COc2ccccc2Cl)c1, which Potency is on record?
Answer: The Potency was inconclusive: 112 µM [inhibitor, partial curve, poor fit].

Question: Which Potency does the source give for CCN(CC)C(=O)CSC(Nc1cccc(F)c1)=C(C#N)C#N here?
Answer: Its Potency is inconclusive: 44.7 µM [inhibitor, partial curve, poor fit].

Question: How did the Potency turn out when O=c1c2cnc(N3CCc4ccccc4C3)nc2ccn1-c1ccccc1F was run?
Answer: Its Potency is inconclusive: 50.1 µM [inhibitor, single point].

Question: How did the Potency turn out when COc1cc(=O)n2c(c1C(=O)Nc1ccc(C)cc1F)CCCC2 was run?
Answer: The Potency was “inactive”.

Question: COc1ccc(NS(=O)(=O)c2ccc(N)c(C(=O)O)c2)cc1 was tested. Which Potency did it give?
Answer: Its Potency is inconclusive: 44.7 µM [inhibitor, single point].

Question: Cn1c(C(C#N)C(=O)Cc2cccc3ccccc23)nc2ccccc21 (centres undefined) was tested. Which Potency did it give?
Answer: Its Potency is “inactive”.

Question: For CC1(CC(=O)N/N=C/c2cc(Br)c(O)cc2O)OCCO1, which Potency is on record?
Answer: Its Potency is “inactive”.

Question: COCCCN=C1NN=C(c2cc(C)n(Cc3ccccc3Cl)c2C)CS1 was tested. Which Potency did it give?
Answer: The Potency was inconclusive: 79.4 µM [inhibitor, partial curve, poor fit].

Question: Cc1ccc(CNC(=O)CCSCc2cnn(-c3ccccc3)c2-n2cccc2)cc1 was tested. Which Potency did it give?
Answer: Its Potency is inconclusive: 79.4 µM [inhibitor, partial curve, poor fit].

Question: Cc1cc2nc(N3CCC(NC(C)c4nc(-c5ccccn5)no4)CC3)nc(C)c2cc1C (centres undefined) was tested. Which Potency did it give?
Answer: Its Potency is inconclusive: 100 µM [inhibitor, single point].

Question: How did the Potency turn out when NC(=S)N/N=C/c1ccc(-c2cc(Cl)ccc2Cl)o1 was run?
Answer: Its Potency is active: 22.4 µM.

Question: For CC(C)CNC(=O)c1ccc(COc2ccc(Cl)cc2Cl)o1, which Potency is on record?
Answer: Its Potency is “inactive”.

Question: With CCOC(=O)c1ccc(N=c2scc(C)n2CC)cc1 as the compound, how does the Potency read?
Answer: The Potency was inconclusive: 20 µM [inhibitor, partial curve, poor fit].

Question: For COc1ccccc1NC(=O)/C=C\c1ccco1, which Potency is on record?
Answer: The Potency was inconclusive: 50.1 µM [inhibitor, partial curve, poor fit].

Question: For CCCCCCC(C)NC(=O)CCNC(=O)c1ccccc1 (centres undefined), which Potency is on record?
Answer: The Potency was “inactive”.

Question: Cc1cccc(NNC(=O)C(=O)NNc2cccc(C)c2)c1 was tested. Which Potency did it give?
Answer: The Potency was active: 1.41 µM.

Question: With CNC(=O)C(C)(C)N1CCC[C@H]1C(=O)N1CCCCCC1 as the compound, how does the Potency read?
Answer: Its Potency is inconclusive: 4.47 µM [inhibitor, full curve].

Question: Which Potency does the source give for CCN(CC)C(=O)C(Sc1nnnn1-c1c(C)cccc1C)c1ccccc1 (centres undefined) here?
Answer: Its Potency is “inactive”.

Question: With O=C1NC(C(=O)NCc2ccc3c(c2)OCO3)Cn2cccc21 (centres undefined) as the compound, how does the Potency read?
Answer: The Potency was inconclusive: 35.5 µM [inhibitor, partial curve, poor fit].

Question: For COc1cc(/C=C/C(=O)NCc2ccccn2)cc(OC)c1OC, which Potency is on record?
Answer: The Potency was “inactive”.

Question: How did the Potency turn out when CCOc1ccc(CN(C)CCc2ccccn2)cc1 was run?
Answer: The Potency was inconclusive: 7.08 µM [inhibitor, full curve, poor fit].

Question: CCOc1ccc(C(=O)N2CCC(c3n[nH]c(=O)n3Cc3ccc(OC)cc3)CC2)cc1 was tested. Which Potency did it give?
Answer: Its Potency is inconclusive: 25.1 µM [inhibitor, full curve].

Question: With Cc1ccc(-c2nc(CNC(=O)Nc3ccc(Cl)cc3)c(C)o2)cc1 as the compound, how does the Potency read?
Answer: Its Potency is inconclusive: 3.55 µM [inhibitor, full curve].

Question: How did the Potency turn out when CCNC(=S)N/N=C(\C)c1ccc2c(c1)OCCO2 was run?
Answer: Its Potency is inconclusive: 25.1 µM [inhibitor, full curve, poor fit].

Question: COc1cccc(NC(=O)O[C@@H]2CC[C@]3(C)[C@H](CC[C@H]4OC(=O)C[C@H]43)[C@]2(C)CO)c1 was tested. Which Potency did it give?
Answer: Its Potency is “inactive”.

Question: How did the Potency turn out when COC(=O)C1=C(COc2ccc(C=O)cc2OC)NC(=O)NC1c1cc(C)ccc1C (centres undefined) was run?
Answer: The Potency was “inactive”.

Question: Which Potency does the source give for Brc1cccc(-c2n[nH]c(-c3ccccc3)n2)c1 here?
Answer: Its Potency is inconclusive: 126 µM [inhibitor, single point].

Question: How did the Potency turn out when Cn1c(COc2ccc(Cl)cc2Cl)n[nH]c1=S was run?
Answer: The Potency was inconclusive: 44.7 µM [inhibitor, partial curve, poor fit].

Question: CCCCN(Cc1cc2ccccc2[nH]c1=O)C(=O)c1ccccn1 was tested. Which Potency did it give?
Answer: Its Potency is inconclusive: 14.1 µM [inhibitor, partial curve, poor fit].

Question: How did the Potency turn out when CCOC(=O)Nc1ccc2c(CN3CCC(C(N)=O)CC3)cc(=O)oc2c1 was run?
Answer: Its Potency is inconclusive: 141 µM [inhibitor, single point].

Question: O=C(O)C1=C[C@H](c2csc3ccccc23)C[C@H](OCc2ccc(CO)cc2)O1 was tested. Which Potency did it give?
Answer: Its Potency is inconclusive: 79.4 µM [inhibitor, single point].

Question: How did the Potency turn out when CCN(C(=O)c1cc(-c2ccccc2)c(N2CCOCC2)s1)C1CCS(=O)(=O)C1 (centres undefined) was run?
Answer: The Potency was inconclusive: 22.4 µM [inhibitor, full curve, poor fit].

Question: With O=C(CSc1ccc(Cl)cc1)NNC(=O)C1CCCc2ccccc21 (centres undefined) as the compound, how does the Potency read?
Answer: The Potency was inconclusive: 28.2 µM [inhibitor, single point].

Question: For CCOc1nc(Nc2ccc(OC)c(Cl)c2)nc(OCC)n1, which Potency is on record?
Answer: The Potency was “inactive”.

Question: Which Potency does the source give for CC(=O)N(CC1CCCO1)C1(C(=O)NC2CCCC2)CCCCC1 (centres undefined) here?
Answer: Its Potency is inconclusive: 35.5 µM [inhibitor, single point].

Question: CC(=O)Nc1ccc(S(=O)(=O)N2CCN(c3nc(NC4CCCC4)c4ccccc4n3)CC2)cc1 was tested. Which Potency did it give?
Answer: Its Potency is inconclusive: 112 µM [inhibitor, single point].

Question: With O=C(Nc1ccc(Br)cc1Cl)c1cc(-c2ccco2)on1 as the compound, how does the Potency read?
Answer: The Potency was “inactive”.

Question: O=C(O)CN(CC(=O)O)C1CCCCC1N(CC(=O)O)CC(=O)O (centres undefined) was tested. Which Potency did it give?
Answer: Its Potency is inconclusive: 56.2 µM [inhibitor, partial curve, poor fit].

Question: How did the Potency turn out when COc1cccc(CN(C)C(=O)c2sccc2-c2ccccc2)c1OC was run?
Answer: Its Potency is inconclusive: 112 µM [inhibitor, single point].

Question: Which Potency does the source give for O=C(NCc1cc2ccccc2[nH]1)C1CCC(=O)N(CC2CCCCC2)C1 (centres undefined) here?
Answer: Its Potency is inconclusive: 50.1 µM [inhibitor, partial curve, poor fit].

Question: O=C(CSc1nc(-c2ccco2)cc(C(F)(F)F)n1)Nc1ccc(C(=O)N2CCCCC2)cc1 was tested. Which Potency did it give?
Answer: The Potency was inconclusive: 89.1 µM [inhibitor, single point].
